Values quoted from earlier work in patent US20050129719A1, “Concentrated emulsion formulation for silatecan” (priority 2003, published 2005).

solubility in water: less than 1 μg/mL
SMILES: CC(=O)O[C@H]1C(=O)[C@@]2(C)[C@H]([C@H](OC(=O)c3ccccc3)[C@]3(O)C[C@H](OC(=O)[C@H](O)[C@@H](NC(=O)c4ccccc4)c4ccccc4)C(C)=C1C3(C)C)[C@]1(OC(C)=O)CO[C@@H]1C[C@@H]2O [Paclitaxel, paclitaxel]
